According to patent publication US20090087428A1:
These are yes or no findings as the source states them, for the method shown. Some entries that bind do so weakly or less than the wild type.

Sequences of proteins named here, by UniProt entry; tags and fusion partners are left off. A change or cut given only in a name is not applied to a line headed by its entry.
UniProt P31994: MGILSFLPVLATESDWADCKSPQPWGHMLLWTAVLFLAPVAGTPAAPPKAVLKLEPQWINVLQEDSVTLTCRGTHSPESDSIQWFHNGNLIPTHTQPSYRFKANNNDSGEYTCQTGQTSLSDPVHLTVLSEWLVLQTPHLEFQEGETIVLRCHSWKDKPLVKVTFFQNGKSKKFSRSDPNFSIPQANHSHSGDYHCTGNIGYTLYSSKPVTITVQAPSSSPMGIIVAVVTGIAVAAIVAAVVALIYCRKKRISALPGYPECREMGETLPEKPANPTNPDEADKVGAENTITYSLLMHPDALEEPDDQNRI

Experiments:
[1] = target: GPI-huFcγRIIB on CHO cells (human) (UniProt P31994); assay: indirect immunofluorescence, flow cytometry on CHO cells (FIG. 5)
[2] = target: GST-huFcγRIIB (human FcγRIIB extracellular domain-Gly-His6-GST fusion protein) (human) [GST: P08515]; assay: ELISA, plate-coated GST fusion proteins (FIG. 4)

binding [1]: binds
binding [2]: binds
B1: Antibody 5A6.2.1 (anti-human FcγRIIB monoclonal antibody) (antibody)
VH: EVKLEESGGGLVQPGGSMKLSCVASGFTFSDAWMDWVRQSPERGLEWVAEIRSKPNNHATYYAESVKGRFTISRDDSKSSVYLQMTSLRPEDTGIYYCTHFDYWGQGTTLTVSSAKTTGPSVFPLAPSSKSTSGGTAALGCLVKDYFPEPVTVSWNSGALTSGVHTFPAVLQSSGLYSLSSVVTVPSSSLGTQTYICNVNHKPSNTKVDKKVEPKSCDKTHT
VL: DIQMTQSPSSLSASLGERVSLTCRASQEISGYLSWFQQKPDGTIKRLIYAASALDSGVPKRFSGSWSGSDYSLTISSLESEDFADYYCLQYVSYPLTFGAGTKLELKRTVAAPSVFIFPPSDEQLKSGTASVVCLLNNFYPREAKVQWKVDNALQSGNSQESVTEQDSKDSTYSLSSTLTLSKADYEKHKVYACEVTHQGLSSPVTKSFNRGEC
